# According to PubChem BioAssay AID504582 (Broad Institute, 2011):
# Screen size: about 340,000 compounds; about 2,300 (0.68%) were called active. Inconclusive results, whose numbers are uncertain, are shown with a selection of clear calls. No stated cut-off is given here; in the data, active means growth rescue above about 28% (passing the limit was not always enough); inconclusive means no clear call, values can overlap the other calls.
# Test: rescue of yeast from PfHsp40 toxicity, primary screen, S. cerevisiae, ATP luminescence (AID 504582);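 further: yeast W303a lacking pdr1 and pdr3 grown in galactose medium; growth measured after three days at 30 °C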
# Conditions: S. cerevisiae expressing PfHsp40, growth rescue, at 12.5 µM, stronger effect = higher value
row,SMILES,growth rescue
1,Cc1ccc(S(=O)(=O)Nc2cccc3cccnc23)cc1,inconclusive: 110%
2,COc1ccc(N/N=C(\C#N)C(=N)SCc2ccccc2)cc1,active: 209%
3,Cc1ccc(/C=N/NC(=O)c2c(-c3ccccc3)noc2C)c(O)c1,inconclusive: 27.1%
4,Cc1nc2cc(F)ccc2n1C1CCN(C(=O)c2c(F)cccc2F)CC1,inconclusive: 45.4%
5,O=C(c1ccc2c(c1)OCO2)N1CCC2(CC1)Oc1ccc(F)cc1C(=O)C21CC(c2ccccc2)=NO1 (configuration not stated),inconclusive: 33.1%
6,Cc1cc(N/N=C/c2ccc(Cl)cc2Cl)nc(NCc2ccccc2)n1,inconclusive: 46.4%
7,Cc1ccc(-n2nc3c(c2NC(=O)C(C)(C)C)CSC3)c(C)c1,inactive: 0.948%
8,CCC(=O)NNC(=S)NC(=O)c1ccc(C)cc1,active: 68.6%
9,CCc1ccccc1OCCCN1CCCC1,inconclusive: 52%
10,CC(=O)/C(N=Nc1nc2c([nH]1)c(=O)n(C)c(=O)n2C)=C(\C)O,inconclusive: 38.6%
11,CCOC(=O)C1(CCCc2ccccc2)CCN(C(=O)c2cc(C)nc(C)n2)CC1,inactive: 1.22%
12,Clc1ccc(Oc2cccc(/C=N/n3cnnc3)c2)cc1,inconclusive: 60.4%
13,COC(=O)c1cc(CSC(=N)N)ccc1OCCC(C)C,inconclusive: 26.4%
14,CC(C(=O)N1CCOCC1)c1ccccc1 (configuration not stated),inconclusive: 29.4%
15,O=C(NCCCN1CCCCCC1)c1ccc(CS(=O)(=O)Cc2ccccc2F)o1,inconclusive: 40.2%
16,Nc1c(C(=O)OCC(=O)Nc2cccc([N+](=O)[O-])c2)[nH]c(=O)[nH]c1=O,inconclusive: 36.3%
17,CCCCCOc1ccc(CSc2n[nH]c(C)n2)cc1,active: 271%
18,CCCCn1c(=N)n(CC(=O)c2ccc(Br)s2)c2ccccc21,inactive: 0.387%
19,Cc1n[nH]c(C)c1N=Nc1ccc(Br)cc1,active: 242%

row,SMILES,growth rescue
1,COc1ccc(-c2[nH]ncc2CN2CCC(N3CCSCC3)CC2)cc1F,inconclusive: 47.2%
2,Cc1cccn2c(=O)nc(SCC(=O)N3CCC(C)CC3)nc12,inconclusive: 57%
3,Clc1ccc(C2=NN=C3COc4ccccc4N3C2)cc1,inconclusive: 45.6%
4,O=C(NCCCn1ccnc1)c1nc(Cn2cc([N+](=O)[O-])cn2)no1,inconclusive: 38.7%
5,CCSc1nc2ccccc2c(=O)n1CCc1ccc(OC)c(OC)c1,inconclusive: 55.5%
6,CC(C)(C)OC(=O)NN1CC(=O)N2Cc3[nH]c4ccccc4c3C[C@H]2C1=O,inconclusive: 29.9%
7,CC(C)(C)OC(=O)NN=C(c1ccc(O)cc1)c1ccc(O)cc1,inactive: 15.4%
8,Cc1ccc(/C=N/NC(=S)NC2CCS(=O)(=O)C2)cc1 (configuration not stated),inconclusive: 37.1%
9,O=C(c1c[nH]c2ccccc12)C(F)(F)F,inconclusive: 27.7%
10,COc1ccc(C(=O)NNC(=O)Cc2nc3ccccc3n2C)cc1,inconclusive: 55.9%
11,CC12CCC(O)CC1=CCC1C2CCC2(C)c3[nH]ncc3CC12 (configuration not stated),inconclusive: 27.4%
12,CCCn1c(-c2ccc(OC)cc2)nc2nc3ccccc3nc21,inactive: -0.0525%
13,CCCc1ccc(C(=O)CN2C(=O)C(=O)N(C3CCCC3)C2=O)cc1,inconclusive: 26.8%
14,CCOC(=O)C(C)Sc1nc(-c2ccccn2)ncc1OC (configuration not stated),inactive: 0.267%
15,CCOP(=O)(OCC)C1NC(=O)N(c2ccccc2)C1=O (configuration not stated),inconclusive: 32.5%
16,Cc1cc(C)n2nc(SCC(=O)N3CCC4(CC3)OCCO4)nc2n1,inactive: -1.36%
17,CN(C)C(=O)CCc1ccc2c3c([nH]c2c1)[C@]1(CCC2CCCC2)[C@@H](C(=O)N2CCOCC2)C[C@H](CC(=O)NCCN2CCOCC2)C(=O)N1CC3,inactive: 0.345%
18,COc1cc(OC)c(C2NC(=O)CCC2[N+](=O)[O-])cc1OC (configuration not stated),inconclusive: 38.4%
19,CCCCn1c(=O)c(C(=O)Nc2ncccc2C)c(O)c2ccccc21,inconclusive: 121%

# Shown as tab-separated lines: part of the list above
row	SMILES	growth rescue
8	Cc1ccc(/C=N/NC(=S)NC2CCS(=O)(=O)C2)cc1 (configuration not stated)	inconclusive: 37.1%
9	O=C(c1c[nH]c2ccccc12)C(F)(F)F	inconclusive: 27.7%
10	COc1ccc(C(=O)NNC(=O)Cc2nc3ccccc3n2C)cc1	inconclusive: 55.9%
11	CC12CCC(O)CC1=CCC1C2CCC2(C)c3[nH]ncc3CC12 (configuration not stated)	inconclusive: 27.4%
12	CCCn1c(-c2ccc(OC)cc2)nc2nc3ccccc3nc21	inactive: -0.0525%

# Further structures follow:

row,SMILES,growth rescue
1,C[C@H](CO)N1C[C@H](C)[C@@H](CN(C)Cc2ccncc2)Oc2c(NC(=O)Cc3ccccc3)cccc2C1=O,inconclusive: 52.6%
2,C=CCC[C@@H](Cc1ccc(F)cc1)C(=O)OC[C@H](C)NC(=O)[C@H](CC=C)CC(=O)N(CCO)Cc1ccccc1,inconclusive: 27%
3,Cc1ccc2c(c1)cc(CN(Cc1cccs1)C(=O)c1ccco1)c1nnnn12,inconclusive: 25.3%
4,Cc1cc(C)nc(NC(=O)c2cccc(Cl)c2)n1,inactive: 0.377%
5,CCCc1cc(C(=O)NNC(=S)NCC2CCCO2)cs1 (configuration not stated),active: 68.8%
6,COc1ccc(CNC(=O)COc2ccccc2C(=O)c2cnn(-c3ccccc3)c2)cc1OC,inconclusive: 32.5%
7,O=[N+]([O-])c1ccc(NN=Cc2ccc(O)cc2)nc1,inactive: 0.46%
8,CSc1ccc(S(=O)(=O)NC2CCCCCC2)cc1,active: 67.1%
9,Oc1ccc(NCc2cccc(OCc3ccccc3)c2)cc1,inactive: -0.538%
10,CCOC(=O)N1CCC(NCc2c(C(=O)N(C)Cc3ccccc3)nc3ccccn23)CC1,inconclusive: 39.8%
11,Cc1cc(Cl)cc2sc(=S)[nH]c12,inconclusive: 66.4%
12,N#C/C(N=Nc1ccccc1O)=N\Nc1ccccc1O,inconclusive: 86.2%
13,C[C@@H]1CC[C@H]2[C@@H](C)C(=O)O[C@@H]3O[C@@]4(C)CC[C@@H]1[C@]32OO4,active: 104%
14,CCN(CC(=O)Nc1ccc(NC(C)=O)cc1)C(=O)c1ccc(NC2CC2)c([N+](=O)[O-])c1,inactive: -1.59%
15,COc1ccc(NC(=S)Nc2cccc3cnccc23)cc1,inactive: -0.853%
16,CC(=O)Nc1ccc(S(=O)(=O)Nc2nc3ccccc3nc2Cl)cc1,inconclusive: 26.6%
17,CCOC(=O)[C@H]1[C@H]2COc3cc(OC)ccc3[C@@H]2N2C(=O)CN(Cc3ccc(Cl)cc3)C(=O)[C@@]12C,inconclusive: 33%
18,COc1ccc(/C=N/NC(=O)c2ccn[nH]2)cc1COc1ccc(Cl)cc1,inconclusive: 50.5%
19,CC1CC(C)CN(C(=O)C2CCC(CNc3c(N4CCCCC4)c(=O)c3=O)CC2)C1 (configuration not stated),active: 53.1%
